No constants are given. Whether binding was seen depends on the method and setting. Some results given as binding are weak or reduced against the parent protein; the word gives no strength.
Molecular target: Biotin-BH4-Bcl-2 (biotinylated peptide corresponding to the BH4 domain of Bcl-2)
Assay: SPR (Biacore 2000), biotinylated peptide on streptavidin chip, GST fusion as analyte

binding: binds
Substance: GST-Domain3 (GST fusion of IP3R1 Domain 3, a.a. 923-1581) (from UniProt P08515 1-218; P11881 923-1581)
